PubChem BioAssay AID1671195 – Yale University – 2021
This is a random part of about 22,000 reagents. About 1,510 of them (6.9%) were called active. 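Active includes knockdowns raising or lowering LDL uptake; positive z-scores mean more uptake, negative mean less.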 Reagents against one gene are numbered here. No sequences are given here.

Assay: 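Regulators of LDL receptor activity judged by labelled LDL uptake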 (primary screen)
Cells: human Huh7 hepatoma cells
Reagent: siRNA pool against human genes, 18 nM
Timing: about 2 to 2.5 days of knockdown, then 8 h LDL uptake
Challenge: DiI-labelled LDL at 30 µg/ml for 8 h, in lipoprotein-deficient serum medium
Measurement: 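Per-cell DiI-LDL intensity by automated imaging; well means scaled to the plate median and given as a robust z-score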
Direction: robust z-score: higher = more LDL uptake after knockdown
Call rule: 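a gene counts as active if at least two replicate z-scores exceed ±2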

| target gene | reagent no. | robust z-score, replicate 1 | robust z-score, replicate 2 | robust z-score, replicate 3 | outcome |
| --- | --- | --- | --- | --- | --- |
| ZXDA (GeneID 7789) | 1 | -2.05 | -1.23 | -1.85 | inactive |
| LINC00636 (GeneID 285205) | 1 | 1.1 | 1.24 | 1.25 | inactive |
| ELAPOR2 (GeneID 222223) | 1 | -1.51 | -1.31 | -0.854 | inactive |
| ZNF770 (GeneID 54989) | 1 | -0.22 | -0.192 | -1.45 | inactive |
| SMIM11 (GeneID 54065) | 1 | -0.94 | -1.86 | -1.29 | inactive |
| CLNK (GeneID 116449) | 1 | 1.82 | 3.41 | 3.32 | active |
| LOC400047 (retired record) (GeneID 400047) | 1 | -0.133 | 0.886 | -0.0579 | inactive |
| CISD1P1 (GeneID 130500) | 1 | -0.387 | -0.341 | -1.61 | inactive |
| MC3R (GeneID 4159) | 1 | 1.46 | 2.48 | 2.36 | active |
| PTDSS1 (GeneID 9791) | 1 | 0.274 | 1.51 | 1.25 | inactive |
| SPATA25 (GeneID 128497) | 1 | -1.59 | -1.33 | -1.52 | inactive |
| CHI3L1 (GeneID 1116) | 1 | -1.36 | -1.49 | -1.74 | inactive |
| TMED9 (GeneID 54732) | 1 | -2.25 | -0.701 | -1.81 | inactive |
| KCNH7 (GeneID 90134) | 1 | 2.58 | 2.14 | 2.79 | active |
| FAM110A (GeneID 83541) | 1 | 1.08 | 0.347 | 0.00746 | inactive |
| HAL (GeneID 3034) | 1 | -1.88 | -1.35 | -1.63 | inactive |
| SNX5 (GeneID 27131) | 1 | 0.435 | -0.197 | 0.347 | inactive |
| LRMDA (GeneID 83938) | 1 | 1.22 | 1.26 | 1.8 | inactive |
| ACSL6 (GeneID 23305) | 1 | -1.28 | -0.856 | -1.32 | inactive |
| LMAN1L (GeneID 79748) | 1 | -1.32 | -1.58 | -1.46 | inactive |
| ANKFY1 (GeneID 51479) | 1 | 1.79 | 0.572 | -2.11 | inactive |
| FEZ2 (GeneID 9637) | 1 | 0.436 | 0.291 | 2.31 | inactive |
| RPS2P45 (GeneID 80052) | 1 | 0.166 | 0.423 | 0.185 | inactive |
| CWH43 (GeneID 80157) | 1 | -0.483 | -0.409 | -0.539 | inactive |
| PODNL1 (GeneID 79883) | 1 | 1.49 | 1.32 | 1.82 | inactive |
| SDE2 (GeneID 163859) | 1 | 0.101 | 0.264 | 1.24 | inactive |
| SLC16A4 (GeneID 9122) | 1 | 1.28 | 1.62 | 1.71 | inactive |
| LRATD2 (GeneID 157638) | 1 | -0.192 | 0.212 | -0.349 | inactive |
| AKR1C6P (GeneID 389932) | 1 | 0.676 | 0.803 | 0.872 | inactive |
| LOC440088 (retired record) (GeneID 440088) | 1 | -0.185 | 0.0207 | 0.106 | inactive |
| ZNF843 (GeneID 283933) | 1 | 0.117 | 0.269 | 0.166 | inactive |
| ABTB1 (GeneID 80325) | 1 | -1.08 | -1.13 | -1.33 | inactive |
| RELB (GeneID 5971) | 1 | 0.613 | 0.856 | 1.05 | inactive |
| EMP1 (GeneID 2012) | 1 | 0.258 | 1.16 | 1.1 | inactive |
| TIMM17A (GeneID 10440) | 1 | -1.88 | -0.19 | -1.35 | inactive |
| SLC13A3 (GeneID 64849) | 1 | -1.25 | -1.56 | -1.13 | inactive |
| RAD17 (GeneID 5884) | 1 | -0.65 | -1.79 | -0.547 | inactive |
| DNAJC14 (GeneID 85406) | 1 | 0.808 | -0.0462 | -0.0175 | inactive |
| PKP4 (GeneID 8502) | 1 | -0.761 | 0.555 | -0.53 | inactive |
| ETAA1 (GeneID 54465) | 1 | -0.864 | 0.36 | 1.48 | inactive |
| TMEM74 (GeneID 157753) | 1 | -0.126 | -0.791 | 0.016 | inactive |
| ERCC6L2 (GeneID 375748) | 1 | 0.288 | 0.151 | 0.423 | inactive |
| ERCC6L2 (GeneID 375748) | 2 | 0.423 | -0.239 | 0.162 | inactive |
| LOC387942 (retired record) (GeneID 387942) | 1 | 2.17 | 1.97 | 2.16 | active |
| DUSP22 (GeneID 56940) | 1 | 1.24 | 0.463 | 1.18 | inactive |
| PDIK1L (GeneID 149420) | 1 | 1.87 | 0.399 | 0.632 | inactive |
| BBS10 (GeneID 79738) | 1 | 0.745 | 0.146 | 0.379 | inactive |
| OR2B6 (GeneID 26212) | 1 | 2.46 | 0.649 | -0.152 | inactive |
| LOC441648 (retired record) (GeneID 441648) | 1 | -0.551 | -0.366 | -0.0975 | inactive |
| TYMS (GeneID 7298) | 1 | -0.973 | -0.518 | -0.871 | inactive |
| AGTRAP (GeneID 57085) | 1 | -0.705 | -0.568 | -0.195 | inactive |
| PER1 (GeneID 5187) | 1 | -0.0727 | 0.155 | 0.135 | inactive |
| RHOBTB1 (GeneID 9886) | 1 | -0.364 | 2.89 | 0.914 | inactive |
| ERVK13-1 (GeneID 100507321) | 1 | -0.36 | -0.735 | -0.597 | inactive |
| BDH1 (GeneID 622) | 1 | -0.852 | -0.414 | -0.402 | inactive |
| MTMR12 (GeneID 54545) | 1 | 1.85 | 1.73 | 2.28 | inactive |
| RPL5P7 (GeneID 344178) | 1 | 1.47 | 0.934 | 1.35 | inactive |
| TSPYL1 (GeneID 7259) | 1 | 3.15 | 0.231 | 1.3 | inactive |
| PYCR2 (GeneID 29920) | 1 | -0.124 | -0.528 | 0.457 | inactive |
| DLGAP5 (GeneID 9787) | 1 | -0.63 | -0.259 | 1.51 | inactive |
| CCDC50 (GeneID 152137) | 1 | 0.774 | -0.643 | 0.2 | inactive |
| GPR68 (GeneID 8111) | 1 | 0.602 | -0.787 | -0.0884 | inactive |
| PKIG (GeneID 11142) | 1 | 1.25 | 0.116 | 0.22 | inactive |
| HOXA4 (GeneID 3201) | 1 | -0.701 | -0.0672 | 0.01 | inactive |
| ZC3H15 (GeneID 55854) | 1 | -0.398 | -0.328 | -0.409 | inactive |
| PDGFRB (GeneID 5159) | 1 | 0.327 | 0.899 | 1.47 | inactive |
| CXXC1P1 (GeneID 392459) | 1 | -0.835 | 0.388 | 0.577 | inactive |
| EXOSC7 (GeneID 23016) | 1 | 2.24 | 3.13 | 1.15 | active |

Part of the list above in another layout:
{"target gene":"PKP4 (GeneID 8502)","reagent no.":1,"robust z-score, replicate 1":-0.761,"robust z-score, replicate 2":0.555,"robust z-score, replicate 3":-0.53,"outcome":"inactive"}
{"target gene":"ETAA1 (GeneID 54465)","reagent no.":1,"robust z-score, replicate 1":-0.864,"robust z-score, replicate 2":0.36,"robust z-score, replicate 3":1.48,"outcome":"inactive"}
{"target gene":"TMEM74 (GeneID 157753)","reagent no.":1,"robust z-score, replicate 1":-0.126,"robust z-score, replicate 2":-0.791,"robust z-score, replicate 3":0.016,"outcome":"inactive"}
{"target gene":"ERCC6L2 (GeneID 375748)","reagent no.":1,"robust z-score, replicate 1":0.288,"robust z-score, replicate 2":0.151,"robust z-score, replicate 3":0.423,"outcome":"inactive"}
{"target gene":"ERCC6L2 (GeneID 375748)","reagent no.":2,"robust z-score, replicate 1":0.423,"robust z-score, replicate 2":-0.239,"robust z-score, replicate 3":0.162,"outcome":"inactive"}
